Reference: PMC4510711
These are yes or no findings as the source states them, for the method shown. Binding seen in cells or lysates may run through a third protein. Some binding calls cover weakened binding; strength is not graded here. Sequences can lack the tags named with a protein.

By UniProt entry, the sequences of proteins in these tests, tags left out.
UniProt A5YKK6: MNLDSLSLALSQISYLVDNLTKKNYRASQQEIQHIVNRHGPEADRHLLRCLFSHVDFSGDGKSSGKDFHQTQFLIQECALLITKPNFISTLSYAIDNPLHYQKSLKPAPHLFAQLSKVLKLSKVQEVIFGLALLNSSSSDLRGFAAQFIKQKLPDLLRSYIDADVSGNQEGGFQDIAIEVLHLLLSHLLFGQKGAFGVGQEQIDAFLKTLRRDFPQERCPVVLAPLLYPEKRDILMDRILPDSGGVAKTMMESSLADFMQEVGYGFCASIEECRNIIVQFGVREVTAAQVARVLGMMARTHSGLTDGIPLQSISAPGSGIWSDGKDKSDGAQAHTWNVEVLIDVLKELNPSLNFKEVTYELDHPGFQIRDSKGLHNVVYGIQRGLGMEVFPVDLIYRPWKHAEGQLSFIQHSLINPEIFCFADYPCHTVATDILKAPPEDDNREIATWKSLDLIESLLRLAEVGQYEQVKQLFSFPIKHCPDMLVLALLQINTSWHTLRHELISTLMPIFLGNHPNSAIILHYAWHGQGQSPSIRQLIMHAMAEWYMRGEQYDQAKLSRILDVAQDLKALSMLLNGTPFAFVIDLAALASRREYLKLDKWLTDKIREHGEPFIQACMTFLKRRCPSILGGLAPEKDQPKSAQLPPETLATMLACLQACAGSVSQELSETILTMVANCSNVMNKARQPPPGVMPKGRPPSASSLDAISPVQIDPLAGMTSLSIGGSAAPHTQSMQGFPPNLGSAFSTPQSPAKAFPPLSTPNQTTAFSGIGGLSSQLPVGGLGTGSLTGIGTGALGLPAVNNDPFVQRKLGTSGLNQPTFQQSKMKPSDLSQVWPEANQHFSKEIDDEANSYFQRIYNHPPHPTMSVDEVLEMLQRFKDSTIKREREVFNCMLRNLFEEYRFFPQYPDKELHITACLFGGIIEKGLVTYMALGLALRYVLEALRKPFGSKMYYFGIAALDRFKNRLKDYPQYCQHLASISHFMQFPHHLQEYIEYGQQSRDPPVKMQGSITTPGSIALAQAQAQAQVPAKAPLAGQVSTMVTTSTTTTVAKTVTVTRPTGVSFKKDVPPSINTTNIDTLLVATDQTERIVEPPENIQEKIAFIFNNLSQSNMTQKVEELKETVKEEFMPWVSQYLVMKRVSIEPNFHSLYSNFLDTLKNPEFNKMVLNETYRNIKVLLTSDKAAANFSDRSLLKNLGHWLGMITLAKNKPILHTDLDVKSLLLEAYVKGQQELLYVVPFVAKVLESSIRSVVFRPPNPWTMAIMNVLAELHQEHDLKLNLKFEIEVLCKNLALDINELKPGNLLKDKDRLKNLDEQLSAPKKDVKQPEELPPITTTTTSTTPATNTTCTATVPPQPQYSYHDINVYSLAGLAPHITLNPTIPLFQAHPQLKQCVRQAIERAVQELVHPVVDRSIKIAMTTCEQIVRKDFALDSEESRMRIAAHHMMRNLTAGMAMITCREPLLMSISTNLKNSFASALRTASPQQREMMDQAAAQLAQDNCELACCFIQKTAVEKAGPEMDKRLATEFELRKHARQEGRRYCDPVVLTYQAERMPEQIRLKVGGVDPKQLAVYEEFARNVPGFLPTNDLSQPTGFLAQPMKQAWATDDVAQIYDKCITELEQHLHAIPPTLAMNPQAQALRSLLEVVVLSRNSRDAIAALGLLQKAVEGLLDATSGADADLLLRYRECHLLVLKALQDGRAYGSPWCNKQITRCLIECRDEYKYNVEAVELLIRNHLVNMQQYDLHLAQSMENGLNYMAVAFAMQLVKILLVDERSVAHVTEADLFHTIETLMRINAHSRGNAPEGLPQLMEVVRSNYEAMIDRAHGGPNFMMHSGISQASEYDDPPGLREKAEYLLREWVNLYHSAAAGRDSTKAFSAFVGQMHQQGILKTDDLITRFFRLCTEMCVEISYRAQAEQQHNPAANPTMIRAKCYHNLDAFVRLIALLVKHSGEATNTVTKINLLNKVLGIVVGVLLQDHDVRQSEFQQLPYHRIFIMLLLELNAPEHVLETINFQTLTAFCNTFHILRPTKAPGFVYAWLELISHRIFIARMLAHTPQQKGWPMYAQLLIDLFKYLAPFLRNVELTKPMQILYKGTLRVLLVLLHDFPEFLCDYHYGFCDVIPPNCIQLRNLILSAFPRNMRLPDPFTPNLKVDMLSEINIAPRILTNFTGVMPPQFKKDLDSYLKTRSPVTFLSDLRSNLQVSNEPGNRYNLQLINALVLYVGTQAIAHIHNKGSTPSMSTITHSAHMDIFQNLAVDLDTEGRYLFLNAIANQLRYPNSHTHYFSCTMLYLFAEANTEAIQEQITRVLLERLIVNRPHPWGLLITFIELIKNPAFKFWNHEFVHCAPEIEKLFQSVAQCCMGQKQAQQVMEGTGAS
UniProt Q9UFF9: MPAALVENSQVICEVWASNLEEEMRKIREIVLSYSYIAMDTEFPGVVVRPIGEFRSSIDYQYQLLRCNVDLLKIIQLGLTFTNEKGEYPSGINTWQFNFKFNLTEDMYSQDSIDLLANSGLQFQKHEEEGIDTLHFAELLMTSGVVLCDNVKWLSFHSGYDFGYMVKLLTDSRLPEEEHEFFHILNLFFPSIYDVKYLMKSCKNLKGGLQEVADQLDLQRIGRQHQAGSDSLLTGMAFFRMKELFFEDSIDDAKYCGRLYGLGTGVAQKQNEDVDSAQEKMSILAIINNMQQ

T1: myc-RC3H1 (human) (UniProt Q5TC82)
T1 sequence: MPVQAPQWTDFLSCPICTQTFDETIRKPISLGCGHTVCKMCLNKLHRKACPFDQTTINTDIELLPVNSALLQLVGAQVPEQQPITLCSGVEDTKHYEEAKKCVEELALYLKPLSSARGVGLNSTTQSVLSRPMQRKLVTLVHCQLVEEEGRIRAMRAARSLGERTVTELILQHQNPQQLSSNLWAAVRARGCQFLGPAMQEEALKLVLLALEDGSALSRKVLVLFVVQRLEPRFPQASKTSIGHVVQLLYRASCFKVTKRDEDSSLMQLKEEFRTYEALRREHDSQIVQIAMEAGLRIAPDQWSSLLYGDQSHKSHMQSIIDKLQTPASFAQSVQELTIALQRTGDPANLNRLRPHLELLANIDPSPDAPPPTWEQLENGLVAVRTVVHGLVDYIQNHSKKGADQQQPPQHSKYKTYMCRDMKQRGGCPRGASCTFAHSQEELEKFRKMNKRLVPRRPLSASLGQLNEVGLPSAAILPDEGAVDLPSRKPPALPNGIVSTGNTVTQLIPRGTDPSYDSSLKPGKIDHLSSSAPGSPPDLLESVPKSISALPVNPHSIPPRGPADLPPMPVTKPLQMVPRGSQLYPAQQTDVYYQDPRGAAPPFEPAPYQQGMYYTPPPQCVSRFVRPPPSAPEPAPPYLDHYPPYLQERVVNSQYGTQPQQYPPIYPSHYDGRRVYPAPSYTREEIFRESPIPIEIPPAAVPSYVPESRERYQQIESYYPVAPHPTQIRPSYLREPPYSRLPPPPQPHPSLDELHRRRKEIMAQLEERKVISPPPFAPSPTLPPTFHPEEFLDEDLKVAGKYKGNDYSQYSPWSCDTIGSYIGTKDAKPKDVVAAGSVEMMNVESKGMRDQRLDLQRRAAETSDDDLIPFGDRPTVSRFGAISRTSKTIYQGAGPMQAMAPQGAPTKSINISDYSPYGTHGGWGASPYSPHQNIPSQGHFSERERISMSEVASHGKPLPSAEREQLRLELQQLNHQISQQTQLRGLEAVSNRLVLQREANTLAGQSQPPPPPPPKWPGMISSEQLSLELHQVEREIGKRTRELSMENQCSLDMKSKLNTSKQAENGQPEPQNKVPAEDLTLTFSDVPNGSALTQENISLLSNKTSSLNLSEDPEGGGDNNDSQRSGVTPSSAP


Biological target: T1, myc-RC3H1 (human)
Assay: co-IP; co-transfection of myc-RC3H1 with HA-CNOT1, HA-CNOT8 or HA-QKI; IP with anti-myc antibody; blots probed with anti-myc and anti-HA

Row | Molecule | binding
1 | HA-CNOT1 (from UniProt A5YKK6 1-2376) | binds
2 | HA-CNOT8 (from UniProt Q9UFF9 1-292) | binds
3 | HA-QUAKING (QKI) (protein, UniProt Q96PU8-1 1-341) MVGEMETKEKPKPTPDYLMQLMNDKKLMSSLPNFCGIFNHLERLLDEEISRVRKDMYNDTLNGSTEKRSAELPDAVGPIVQLQEKLYVPVKEYPDFNFVGRILGPRGLTAKQLEAETGCKIMVRGKGSMRDKKKEEQNRGKPNWEHLNEDLHVLITVEDAQNRAEIKLKRAVEEVKKLLVPAAEGEDSLKKMQLMELAILNGTYRDANIKSPALAFSLAATAQAAPRIITGPAPVLPPAALRTPTPAGPTIMPLIRQIQTAVMPNGTPHPTAAIVPPGPEAGLIYTPYEYPYTLAPATSILEYPIEPSGVLGAVATKVRRHDMRVHPYQRIVTADRAATGN | no binding
